Data from the supplement of paper PMC10849652.
This is one part of the list.

Chains of the proteins cited; added tags and fusions are not shown. Lines headed by an entry give the natural chain unless they say otherwise; changes in a name come on top.
UniProt P58557: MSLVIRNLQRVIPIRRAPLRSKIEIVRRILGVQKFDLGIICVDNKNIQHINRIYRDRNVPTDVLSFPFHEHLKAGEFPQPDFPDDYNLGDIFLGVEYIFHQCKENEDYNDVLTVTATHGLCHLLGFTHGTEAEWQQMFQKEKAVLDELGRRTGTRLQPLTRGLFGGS
UniProt O15060: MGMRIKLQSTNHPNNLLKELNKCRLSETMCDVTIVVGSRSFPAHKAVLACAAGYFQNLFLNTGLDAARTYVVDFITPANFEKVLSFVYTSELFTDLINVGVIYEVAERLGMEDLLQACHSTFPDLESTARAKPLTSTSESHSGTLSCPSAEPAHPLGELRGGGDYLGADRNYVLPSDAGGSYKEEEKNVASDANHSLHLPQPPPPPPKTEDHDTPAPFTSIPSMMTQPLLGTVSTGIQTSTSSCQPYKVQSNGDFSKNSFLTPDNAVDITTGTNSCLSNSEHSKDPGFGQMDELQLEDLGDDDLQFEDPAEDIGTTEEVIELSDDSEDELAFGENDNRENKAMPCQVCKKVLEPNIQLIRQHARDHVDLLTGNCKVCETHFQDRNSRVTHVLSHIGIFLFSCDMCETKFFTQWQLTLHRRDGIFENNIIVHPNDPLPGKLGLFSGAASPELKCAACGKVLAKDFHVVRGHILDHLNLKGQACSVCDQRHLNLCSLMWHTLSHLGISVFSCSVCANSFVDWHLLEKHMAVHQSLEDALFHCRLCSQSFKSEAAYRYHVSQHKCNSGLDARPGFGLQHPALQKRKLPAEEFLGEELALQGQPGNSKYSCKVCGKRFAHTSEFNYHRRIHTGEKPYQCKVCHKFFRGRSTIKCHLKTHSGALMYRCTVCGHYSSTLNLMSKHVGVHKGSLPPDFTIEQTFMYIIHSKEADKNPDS
UniProt Q9UIJ5: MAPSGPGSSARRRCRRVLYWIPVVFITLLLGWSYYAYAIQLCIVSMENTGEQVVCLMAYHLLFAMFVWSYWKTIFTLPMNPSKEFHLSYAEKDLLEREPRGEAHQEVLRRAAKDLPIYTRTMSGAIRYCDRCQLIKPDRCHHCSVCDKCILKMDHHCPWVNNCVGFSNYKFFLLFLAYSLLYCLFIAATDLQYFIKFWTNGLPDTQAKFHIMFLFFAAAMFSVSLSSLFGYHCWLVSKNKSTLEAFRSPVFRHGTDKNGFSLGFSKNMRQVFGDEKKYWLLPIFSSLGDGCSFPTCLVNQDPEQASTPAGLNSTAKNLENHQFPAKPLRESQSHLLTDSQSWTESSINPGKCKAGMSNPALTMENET
UniProt O43543: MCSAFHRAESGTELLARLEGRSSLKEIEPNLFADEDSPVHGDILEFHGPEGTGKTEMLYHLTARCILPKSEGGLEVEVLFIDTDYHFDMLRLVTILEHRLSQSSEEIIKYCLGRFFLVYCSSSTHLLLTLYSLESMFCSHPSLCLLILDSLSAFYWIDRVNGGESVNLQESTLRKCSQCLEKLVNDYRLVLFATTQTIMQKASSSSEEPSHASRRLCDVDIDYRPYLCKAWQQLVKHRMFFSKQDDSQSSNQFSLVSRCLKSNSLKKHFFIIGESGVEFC
UniProt Q9H869: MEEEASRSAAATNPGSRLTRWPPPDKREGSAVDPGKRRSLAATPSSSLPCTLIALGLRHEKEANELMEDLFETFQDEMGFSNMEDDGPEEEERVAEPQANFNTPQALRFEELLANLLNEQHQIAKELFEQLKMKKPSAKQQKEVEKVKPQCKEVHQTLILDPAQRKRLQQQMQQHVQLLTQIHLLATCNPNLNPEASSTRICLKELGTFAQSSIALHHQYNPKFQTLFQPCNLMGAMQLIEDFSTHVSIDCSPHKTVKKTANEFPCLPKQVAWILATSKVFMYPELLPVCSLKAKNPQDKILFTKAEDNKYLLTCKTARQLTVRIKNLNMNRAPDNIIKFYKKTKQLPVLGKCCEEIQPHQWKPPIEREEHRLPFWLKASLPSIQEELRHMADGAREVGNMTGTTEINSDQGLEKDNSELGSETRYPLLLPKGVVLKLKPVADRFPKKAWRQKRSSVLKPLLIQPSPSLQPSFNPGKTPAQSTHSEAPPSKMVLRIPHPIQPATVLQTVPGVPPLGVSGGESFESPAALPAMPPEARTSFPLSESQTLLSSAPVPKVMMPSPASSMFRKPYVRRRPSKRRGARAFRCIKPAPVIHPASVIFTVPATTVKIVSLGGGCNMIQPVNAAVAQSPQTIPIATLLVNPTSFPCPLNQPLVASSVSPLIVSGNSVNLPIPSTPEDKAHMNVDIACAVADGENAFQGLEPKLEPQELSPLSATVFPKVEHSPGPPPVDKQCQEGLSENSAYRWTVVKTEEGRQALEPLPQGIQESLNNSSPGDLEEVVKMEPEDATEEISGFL
UniProt O43298: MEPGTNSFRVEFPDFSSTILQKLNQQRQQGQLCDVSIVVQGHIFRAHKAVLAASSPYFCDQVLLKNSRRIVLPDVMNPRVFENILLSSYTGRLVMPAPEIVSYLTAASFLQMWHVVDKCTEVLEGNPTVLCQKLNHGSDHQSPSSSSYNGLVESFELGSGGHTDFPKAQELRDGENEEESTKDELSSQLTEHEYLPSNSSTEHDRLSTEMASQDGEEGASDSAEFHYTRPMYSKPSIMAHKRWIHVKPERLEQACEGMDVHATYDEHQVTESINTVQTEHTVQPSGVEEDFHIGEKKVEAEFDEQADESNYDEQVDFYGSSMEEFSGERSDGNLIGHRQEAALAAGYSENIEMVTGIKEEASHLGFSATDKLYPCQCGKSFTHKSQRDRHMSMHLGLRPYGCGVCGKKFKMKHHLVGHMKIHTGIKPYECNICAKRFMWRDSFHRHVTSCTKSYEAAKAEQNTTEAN
UniProt Q96K80: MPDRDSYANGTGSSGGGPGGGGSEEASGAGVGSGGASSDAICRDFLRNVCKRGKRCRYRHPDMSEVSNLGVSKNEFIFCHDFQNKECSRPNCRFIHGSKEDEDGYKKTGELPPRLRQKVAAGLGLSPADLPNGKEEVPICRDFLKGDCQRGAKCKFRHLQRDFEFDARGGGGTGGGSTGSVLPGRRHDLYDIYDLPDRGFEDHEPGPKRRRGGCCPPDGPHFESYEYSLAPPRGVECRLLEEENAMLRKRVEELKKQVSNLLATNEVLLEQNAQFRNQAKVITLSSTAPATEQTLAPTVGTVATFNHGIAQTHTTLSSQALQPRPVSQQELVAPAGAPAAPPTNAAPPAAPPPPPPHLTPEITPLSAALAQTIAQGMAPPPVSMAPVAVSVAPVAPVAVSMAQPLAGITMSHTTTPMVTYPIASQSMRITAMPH
UniProt O43542: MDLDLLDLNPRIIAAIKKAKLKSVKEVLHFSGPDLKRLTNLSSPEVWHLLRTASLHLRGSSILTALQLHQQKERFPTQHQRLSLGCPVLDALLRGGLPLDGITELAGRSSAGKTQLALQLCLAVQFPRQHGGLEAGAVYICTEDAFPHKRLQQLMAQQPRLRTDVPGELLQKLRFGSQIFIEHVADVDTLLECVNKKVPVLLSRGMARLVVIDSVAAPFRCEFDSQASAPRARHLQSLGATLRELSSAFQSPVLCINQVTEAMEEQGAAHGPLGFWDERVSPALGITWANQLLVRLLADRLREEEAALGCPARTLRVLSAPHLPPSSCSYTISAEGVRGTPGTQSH
UniProt P10074: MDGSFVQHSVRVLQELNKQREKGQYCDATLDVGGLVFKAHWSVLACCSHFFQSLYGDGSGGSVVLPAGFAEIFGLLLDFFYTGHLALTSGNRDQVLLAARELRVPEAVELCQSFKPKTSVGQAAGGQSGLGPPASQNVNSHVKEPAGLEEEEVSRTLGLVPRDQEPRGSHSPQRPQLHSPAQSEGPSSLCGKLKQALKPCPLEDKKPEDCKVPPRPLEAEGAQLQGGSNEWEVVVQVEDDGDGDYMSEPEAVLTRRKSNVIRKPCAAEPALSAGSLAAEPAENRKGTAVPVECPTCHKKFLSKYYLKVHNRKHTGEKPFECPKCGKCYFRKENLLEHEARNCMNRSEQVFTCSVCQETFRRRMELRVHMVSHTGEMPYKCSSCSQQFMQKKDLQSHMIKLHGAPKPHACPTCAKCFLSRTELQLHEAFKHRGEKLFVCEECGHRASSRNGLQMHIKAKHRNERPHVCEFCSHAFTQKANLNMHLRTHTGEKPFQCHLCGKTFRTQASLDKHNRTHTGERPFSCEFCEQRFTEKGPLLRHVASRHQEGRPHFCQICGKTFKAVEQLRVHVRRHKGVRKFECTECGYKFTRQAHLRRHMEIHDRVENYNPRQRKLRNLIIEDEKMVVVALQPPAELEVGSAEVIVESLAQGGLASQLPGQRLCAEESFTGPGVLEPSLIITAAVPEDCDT
UniProt Q9Y397: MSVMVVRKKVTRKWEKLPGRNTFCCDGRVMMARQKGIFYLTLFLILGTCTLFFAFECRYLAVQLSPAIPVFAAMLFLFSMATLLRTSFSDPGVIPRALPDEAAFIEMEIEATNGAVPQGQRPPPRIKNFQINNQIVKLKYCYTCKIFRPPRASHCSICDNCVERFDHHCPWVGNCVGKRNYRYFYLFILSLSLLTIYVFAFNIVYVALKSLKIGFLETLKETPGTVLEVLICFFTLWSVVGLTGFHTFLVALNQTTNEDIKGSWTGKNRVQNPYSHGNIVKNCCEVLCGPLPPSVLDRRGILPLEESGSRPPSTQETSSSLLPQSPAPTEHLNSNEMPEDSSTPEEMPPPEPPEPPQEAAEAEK
UniProt Q9NUA8: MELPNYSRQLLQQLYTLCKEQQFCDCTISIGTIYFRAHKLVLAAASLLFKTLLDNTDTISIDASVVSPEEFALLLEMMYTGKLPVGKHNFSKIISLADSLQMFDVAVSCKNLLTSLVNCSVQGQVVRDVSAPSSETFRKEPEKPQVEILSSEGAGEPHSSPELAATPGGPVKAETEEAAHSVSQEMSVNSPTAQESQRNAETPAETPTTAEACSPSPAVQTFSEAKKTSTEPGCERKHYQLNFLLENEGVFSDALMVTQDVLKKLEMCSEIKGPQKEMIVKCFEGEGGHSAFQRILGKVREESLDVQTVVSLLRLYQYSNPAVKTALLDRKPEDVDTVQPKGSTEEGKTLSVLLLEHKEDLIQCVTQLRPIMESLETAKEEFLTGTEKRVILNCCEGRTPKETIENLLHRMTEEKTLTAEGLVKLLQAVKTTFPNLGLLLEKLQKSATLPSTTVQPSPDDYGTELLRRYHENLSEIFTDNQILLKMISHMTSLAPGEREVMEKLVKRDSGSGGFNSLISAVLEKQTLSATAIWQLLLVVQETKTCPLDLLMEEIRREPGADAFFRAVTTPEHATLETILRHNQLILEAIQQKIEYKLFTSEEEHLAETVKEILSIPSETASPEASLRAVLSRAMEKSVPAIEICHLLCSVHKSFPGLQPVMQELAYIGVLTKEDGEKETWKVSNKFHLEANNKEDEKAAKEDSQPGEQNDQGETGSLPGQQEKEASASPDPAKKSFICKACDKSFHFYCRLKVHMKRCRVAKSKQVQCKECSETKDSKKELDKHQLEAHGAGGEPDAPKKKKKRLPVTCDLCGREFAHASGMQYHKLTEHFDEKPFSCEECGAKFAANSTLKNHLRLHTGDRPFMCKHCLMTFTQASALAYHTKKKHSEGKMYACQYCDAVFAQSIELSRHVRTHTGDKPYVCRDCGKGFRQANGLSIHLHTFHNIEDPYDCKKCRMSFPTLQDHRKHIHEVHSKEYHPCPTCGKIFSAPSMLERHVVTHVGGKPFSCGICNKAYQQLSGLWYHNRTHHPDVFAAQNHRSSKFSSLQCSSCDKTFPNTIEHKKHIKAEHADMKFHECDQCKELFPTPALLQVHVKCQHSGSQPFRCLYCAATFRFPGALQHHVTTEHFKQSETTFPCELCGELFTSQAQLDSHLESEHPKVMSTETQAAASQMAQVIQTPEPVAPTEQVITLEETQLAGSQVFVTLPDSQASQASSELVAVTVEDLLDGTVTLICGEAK
UniProt Q49AG3: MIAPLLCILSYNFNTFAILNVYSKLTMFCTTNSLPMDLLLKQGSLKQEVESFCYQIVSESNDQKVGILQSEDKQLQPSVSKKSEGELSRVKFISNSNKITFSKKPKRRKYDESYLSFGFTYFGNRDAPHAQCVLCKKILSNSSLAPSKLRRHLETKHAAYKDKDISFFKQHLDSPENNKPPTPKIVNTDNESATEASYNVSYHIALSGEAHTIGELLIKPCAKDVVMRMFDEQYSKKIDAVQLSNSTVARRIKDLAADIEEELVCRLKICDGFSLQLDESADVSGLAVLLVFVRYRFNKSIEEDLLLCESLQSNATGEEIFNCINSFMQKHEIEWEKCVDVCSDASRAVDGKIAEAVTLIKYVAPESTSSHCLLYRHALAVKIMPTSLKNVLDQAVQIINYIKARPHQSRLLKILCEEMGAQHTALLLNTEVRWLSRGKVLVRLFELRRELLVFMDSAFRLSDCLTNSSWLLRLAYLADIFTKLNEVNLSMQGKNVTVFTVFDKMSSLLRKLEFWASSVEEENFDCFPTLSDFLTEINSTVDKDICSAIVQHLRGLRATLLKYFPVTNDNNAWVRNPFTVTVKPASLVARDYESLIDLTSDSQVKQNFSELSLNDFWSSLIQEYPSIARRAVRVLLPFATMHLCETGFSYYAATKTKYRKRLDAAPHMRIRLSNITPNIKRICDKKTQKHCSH

Key:
Test in all cases: log2 fold change, soluble protein after heating vs DMSO (PISA); higher = thermal stabilisation; K562 lysate, 10 uM; active = over 0.2 and 3.5 SD of the protein, either way, in both replicates (recomputed)
[1] = compound: CC1=C(C=C(C=C1)NC(=O)C2=CC(=CC=C2)C(C)(C)C#N)NC3=CC4=C(C=C3)N=CN(C4=O)C
Method in brief: (§1)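 Following dounce homogenisation of K562 pellets in PBS pH 7.4 with 1 mM MgCl2, crude extract at 1 mg/mL protein was incubated for 30 min with 10 μM compound. Aliquots were then heated for 3 min over 48°C-58°C and pooled, NP-40 was added to 0.5% at 4°C, and soluble protein was recovered as the supernatant at 21,000xg for 90 min. Channel-sum-equalised TMTpro 16plex LC-MS/MS quantified this protein. Each value, from duplicates, is a log-two fold change in thermal stability relative to solvent controls.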

[2] = compound: CC(C)C1=C2N=C(C=C(N2N=C1)NCC3=CC=CC=C3)NCCCCCCN
Method in brief: as §1

[3] = compound: CC1=C(C2=C(C=C1)C(=O)C3=CC=CC=C3N2CCCN)C
Method in brief: as §1

ralimetinib = compound: CC(C)(C)Cn1c(N)nc2ccc(-c3[nH]c(C(C)(C)C)nc3-c3ccc(F)cc3)nc21 [ralimetinib]
Method in brief: as §1

[4] = compound: CC(C)(O)CC(=O)NCCn1ccc2ncnc(Nc3ccc(Oc4cccc(C(F)(F)F)c4)c(Cl)c3)c21
Method in brief: as §1

[5] = compound: CC1=C(C=C(C=C1)NC(=O)C2=CC(=CC=C2)N(C)C)NC(=O)C3=CC=C(C=C3)O
Method in brief: as §1

[6] = compound: CC(=O)c1cnc2ccc(-c3cc(Cl)c(O)c(Cl)c3)nc2c1N[C@H]1CC[C@H](CN(C)C)CC1
Method in brief: as §1

[7] = compound: CC1=CC=C(C=C1)SC2=C3C=C(SC3=CN=C2)C(=O)N
Method in brief: as §1

ibrutinib = compound: C=CC(=O)N1CCC[C@@H](n2nc(-c3ccc(Oc4ccccc4)cc3)c3c(N)ncnc32)C1 [ibrutinib]
Method in brief: as §1

[8] = compound: CC1=C(C(CC(=O)N1)C2=CC=C(C=C2)C(F)(F)F)C(=O)NC3=C(C=C4C(=C3)C=NN4)F
Method in brief: as §1

Measured: log2 fold change

ZC4H2 (UniProt Q9NQZ6)
inactive: [1] 0.182

YBEY (UniProt P58557)
inactive: [2] 0.016 | [3] -0.029

ZBTB39 (UniProt O15060)
inactive: ralimetinib -0.062 | [4] 0.081 | [3] 0.03 | [5] 0.023

ZDHHC2 (UniProt Q9UIJ5)
inactive: [6] -0.044 | ralimetinib 0.055 | [4] 0.011 | [2] -0.161 | [1] 0.074 | [5] 0.007 | [7] -0.005

XRCC2 (UniProt O43543)
inactive: ibrutinib 0.041 | [8] -0.202 | [3] 0.125 | [1] 0.112

YY1AP1 isoform 9 (UniProt Q9H869)
inactive: ralimetinib -0.09 | [4] -0.087 | [2] 0.455 | [3] 0.091 | [1] 0.097 | [5] 0.138

ZBTB43 (UniProt O43298)
inactive: [6] 0.043 | ralimetinib -0.074 | [4] -0.092 | [2] -0.026 | [3] -0.127 | [1] 0.038 | [5] -0.002 | [7] -0.019

ZC3H10 (UniProt Q96K80)
inactive: ibrutinib -0.047 | [3] -0.012 | [1] 0.322

XPOT (UniProt F5GYW6)
inactive: [6] -0.027 | [7] 0.041

ZFPM2 (UniProt Q8WW38)
inactive: ibrutinib -0.128 | [2] 0.094 | [3] -0.001 | [1] 0

XRCC3 (UniProt O43542)
inactive: ibrutinib 0.154 | ralimetinib 0.026 | [4] 0.005 | [2] 0.041 | [8] 0.049 | [3] 0.008 | [1] -0.004 | [5] -0.025

ZBTB48 (UniProt P10074)
inactive: [3] -0.086

ZDHHC9 (UniProt Q9Y397)
inactive: ralimetinib -0.066 | [4] -0.158 | [2] -0.222 | [1] 0.101 | [5] 0.101

ZBTB40 (UniProt Q9NUA8)
inactive: [6] 0.035 | ralimetinib 0.096 | [4] -0.012 | [2] 0.057 | [8] 0.081 | [3] -0.042 | [1] 0.009 | [5] -0.007 | [7] -0.044

ZBED5 (UniProt Q49AG3)
inactive: [2] 0.063 | [3] -0.02

4 neighbouring records out of the list so far, for reference:
XRCC3 (UniProt O43542)
inactive: ibrutinib 0.154 | ralimetinib 0.026 | [4] 0.005 | [2] 0.041 | [8] 0.049 | [3] 0.008 | [1] -0.004 | [5] -0.025

ZBTB48 (UniProt P10074)
inactive: [3] -0.086

ZDHHC9 (UniProt Q9Y397)
inactive: ralimetinib -0.066 | [4] -0.158 | [2] -0.222 | [1] 0.101 | [5] 0.101

ZBTB40 (UniProt Q9NUA8)
inactive: [6] 0.035 | ralimetinib 0.096 | [4] -0.012 | [2] 0.057 | [8] 0.081 | [3] -0.042 | [1] 0.009 | [5] -0.007 | [7] -0.044
